Laboratory results published in paper PMC5006124.
These are yes or no findings as the source states them, for the method shown. Binding seen in cells or lysates may run through a third protein. Some entries that bind do so weakly or less than the wild type. Tags and fused reporters may be left off the sequences shown.

The chains behind the UniProt entries cited, without tags or fusion partners. Residues count along the entry.
UniProt Q99IB8, residues 1977-2442: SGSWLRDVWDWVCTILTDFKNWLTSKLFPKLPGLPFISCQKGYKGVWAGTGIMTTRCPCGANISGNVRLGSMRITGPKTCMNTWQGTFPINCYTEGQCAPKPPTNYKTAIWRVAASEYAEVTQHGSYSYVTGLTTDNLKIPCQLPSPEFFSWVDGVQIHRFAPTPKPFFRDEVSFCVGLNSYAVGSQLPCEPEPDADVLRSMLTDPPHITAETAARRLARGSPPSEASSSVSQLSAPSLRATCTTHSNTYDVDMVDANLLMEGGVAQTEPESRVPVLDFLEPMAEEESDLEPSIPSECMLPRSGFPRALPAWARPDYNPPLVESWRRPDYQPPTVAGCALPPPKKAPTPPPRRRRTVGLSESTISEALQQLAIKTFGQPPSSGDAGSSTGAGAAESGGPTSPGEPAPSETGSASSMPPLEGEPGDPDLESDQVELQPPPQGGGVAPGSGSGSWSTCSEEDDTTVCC

Key:
[1] = target: HCV NS5A fused to the GlucC fragment of Gaussia luciferase (BiLC reporter construct) (hepatitis C virus) (UniProt Q99IB8); test: split reporter; BiLC (bi-molecular luminescence complementation) with split Gaussia luciferase; TRIM14-GlucN and HCV protein-GlucC plasmids co-transfected into HEK293T cells, luciferase activity read
[2] = target: Flag-tagged HCV non-structural protein NS5A (hepatitis C virus) (UniProt Q99IB8); test: co-IP; HEK293T co-transfected with HA-tagged TRIM14 or truncations and Flag-tagged HCV proteins, 24 h; lysis in 20 mM Tris pH 8.0, 150 mM NaCl, 1% TritonX-100, 1 mM EDTA; immunoprecipitated using anti-Flag, 4 °C, 6-8 hours; western blot

B1: TRIM14 fused to the GlucN fragment of Gaussia luciferase (BiLC reporter construct) (protein, UniProt Q14142 1-442)
chain: MAGAATGSRTPGRSELVEGCGWRCPEHGDRVAELFCRRCRRCVCALCPVLGAHRGHPVGLALEAAVHVQKLSQECLKQLAIKKQQHIDNITQIEDATEKLKANAESSKTWLKGKFTELRLLLDEEEALAKKFIDKNTQLTLQVYREQADSCREQLDIMNDLSNRVWSISQEPDPVQRLQAYTATEQEMQQQMSLGELCHPVPLSFEPVKSFFKGLVEAVESTLQTPLDIRLKESINCQLSDPSSTKPGTLLKTSPSPERSLLLKYARTPTLDPDTMHARLRLSADRLTVRCGLLGSLGPVPVLRFDALWQVLARDCFATGRHYWEVDVQEAGAGWWVGAAYASLRRRGASAAARLGCNRQSWCLKRYDLEYWAFHDGQRSRLRPRDDLDRLGVFLDYEAGVLAFYDVTGGMSHLHTFRATFQEPLYPALRLWEGAISIPRLP
binding [1]: binds

B2: HA-tagged TRIM14 (tripartite motif 14) (protein, UniProt Q14142 1-442)
chain: MAGAATGSRTPGRSELVEGCGWRCPEHGDRVAELFCRRCRRCVCALCPVLGAHRGHPVGLALEAAVHVQKLSQECLKQLAIKKQQHIDNITQIEDATEKLKANAESSKTWLKGKFTELRLLLDEEEALAKKFIDKNTQLTLQVYREQADSCREQLDIMNDLSNRVWSISQEPDPVQRLQAYTATEQEMQQQMSLGELCHPVPLSFEPVKSFFKGLVEAVESTLQTPLDIRLKESINCQLSDPSSTKPGTLLKTSPSPERSLLLKYARTPTLDPDTMHARLRLSADRLTVRCGLLGSLGPVPVLRFDALWQVLARDCFATGRHYWEVDVQEAGAGWWVGAAYASLRRRGASAAARLGCNRQSWCLKRYDLEYWAFHDGQRSRLRPRDDLDRLGVFLDYEAGVLAFYDVTGGMSHLHTFRATFQEPLYPALRLWEGAISIPRLP
binding [2]: binds
